Measured values published in the supplement of paper PMC7530171.
± gives the standard deviation. Only a part is listed here, and it is no random draw.

Tested on: THP-1 macrophages infected with Mycobacterium tuberculosis H37Rv
Experiment: intracellular M.tb growth inhibition relative to DMSO (0) and 4 uM bedaquiline (100); higher = stronger inhibition of intracellular bacterial growth
Conditions: 10 µM; 4 days
Procedure: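 OICR kinase inhibitor library screened in duplicate at 10 uM against THP-1 macrophages (PMA-differentiated) infected with M. tuberculosis H37Rv-pTEC27 (tdTomato RFP), 4 days at 37 C. Rows with complete host cell loss (placeholder inhibition 0, cell loss 100) were removed.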

SMILES | intracellular M.tb growth inhibition
Cc1ccccc1-n1c(Cn2nc(-c3cccc(O)c3)c3c(N)ncnc32)nc2cccc(C)c2c1=O | -70.4 ± 58%
O=C1NC(=O)c2c1c(-c1ccccc1)cc1[nH]c3ccc(O)cc3c21 | 121 ± 7.8%
